# Test results published in PubChem BioAssay AID328 (DTP/NCI, 2004).
# The list shows only some results of the screen, not a fair sample: it gathers tests that were run many times, whatever their T/C, doses with no T/C, and many T/C values between a quarter and a half above the control. Further doses and runs are listed elsewhere. T/C is the treated group as % of the vehicle group. Some entries give survivors of the animals treated and no T/C: the source files T/C as zero there, which appears to mark a toxic dose or a test without result, not a measured value. Some doses without a T/C left all or most animals alive at the check, yet need not have been tolerated: the source hardly ever lists a survival T/C far under the control, and the zero likely stands for such cases as well. Counts of survivors are from the toxicity check (mostly the fifth day) where no day follows; animals may have died later. Schedules are NCI's codes, read here as Q, the interval in days (D) or hours (H), X, the number of doses. Some entries were tested several times; their values stand side by side, smallest first. Some molecules as drawn cover several salts, stereoisomers or complexes of the source; a dose is that of the sample tested. Where survival is the endpoint, this PubChem deposit counts one and a half times the control or more as active, and values a quarter to a half above the control carry no call in these data; other NCI protocols may use other cut-offs. Additions like (4×) stand for listed records that agree. Some T/C values carry the count of animals alive at the toxicity check (mostly the fifth day); where none is given, no animal had died by that day.
# Test system: BDF1 mice, P388 leukemia ip, median survival T/C
# Test: NCI In Vivo Anticancer Drug Screen. Data for tumor model P388 Leukemia (intraperitoneal) in B6D2F1 (BDF1) mice
# Conditions: T/C endpoint: median survival time, higher T/C = longer survival
# Summary of the method: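 Read-out is survival of treated animals expressed relative to the vehicle group, as a T/C ratio.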
compound,measurement,setting,value
COC(=O)C[C@](O)(CCC(C)(C)O)C(=O)O[C@@H]1C(OC)=C[C@]23CCCN2CCc2cc4c(cc2[C@H]13)OCO4,T/C,"dose: 0.2 mg/kg/injection, schedule: Q01DX010 (ip), vehicle: saline",126 % of control
same,T/C,"dose: 0.25 mg/kg/injection, schedule: Q03HX008 (ip), vehicle: saline",127 % of control
same,T/C,"dose: 0.5 mg/kg/injection, schedule: Q01DX009 (ip), vehicle: saline, evaluated on day 30",175 and 240 % of control
same,T/C,"dose: 0.5 mg/kg/injection, schedule: Q01DX009 (ip), vehicle: saline, evaluated on day 60",200 and 209 % of control
same,T/C,"dose: 0.5 mg/kg/injection, schedule: Q01DX009 (oral), vehicle: saline",130 % of control
same,T/C,"dose: 0.5 mg/kg/injection, schedule: Q01DX009 (sc), vehicle: saline",135 % of control
same,T/C,"dose: 0.5 mg/kg/injection, schedule: Q01DX010 (ip), vehicle: saline",142 % of control
same,T/C,"dose: 0.5 mg/kg/injection, schedule: Q01DX010 (sc), vehicle: saline",140 % of control
same,T/C,"dose: 1.0 mg/kg/injection, schedule: Q01DX006 (iv), vehicle: saline",145 % of control
same,T/C,"dose: 1.0 mg/kg/injection, schedule: Q01DX009 (ip), vehicle: saline, evaluated on day 30",204 and 255 % of control
same,T/C,"dose: 1.0 mg/kg/injection, schedule: Q01DX009 (ip), vehicle: saline, evaluated on day 60",240 % of control (2×)
same,T/C,"dose: 1.0 mg/kg/injection, schedule: Q01DX009 (oral), vehicle: saline",140 % of control [9 of 10 alive]
same,T/C,"dose: 1.0 mg/kg/injection, schedule: Q01DX010 (ip), vehicle: saline",147 % of control
same,T/C,"dose: 1.0 mg/kg/injection, schedule: Q01DX010 (sc), vehicle: saline",135 % of control
same,T/C,"dose: 1.0 mg/kg/injection, schedule: Q03HX008 (ip), vehicle: saline",145 % of control [7 of 10 alive]
same,T/C,"dose: 2.0 mg/kg/injection, schedule: Q01DX001 (ip), vehicle: saline",131 % of control
same,T/C,"dose: 2.0 mg/kg/injection, schedule: Q01DX009 (ip), vehicle: saline, evaluated on day 30",216 and 280 % of control [9 of 10 alive]
same,T/C,"dose: 2.0 mg/kg/injection, schedule: Q01DX009 (ip), vehicle: saline, evaluated on day 60",227 and 304 % of control
same,survivor count,"dose: 2.0 mg/kg/injection, schedule: Q01DX009 (ip), vehicle: water",4 of 6
same,T/C,"dose: 2.0 mg/kg/injection, schedule: Q01DX010 (ip), vehicle: saline",147 % of control
same,survivor count,"dose: 2.0 mg/kg/injection, schedule: Q03HX008 (ip), vehicle: saline",0 of 10
same,survivor count,"dose: 2.0 mg/kg/injection, schedule: Q03HX016 (ip), vehicle: saline",0 of 10
same,survivor count,"dose: 2.0 mg/kg/injection, schedule: Q03HX024 (ip), vehicle: saline",0 of 10
same,T/C,"dose: 2.0 mg/kg/injection, schedule: Q08DX002 (ip), vehicle: saline",131 % of control
same,survivor count,"dose: 2.9 mg/kg/injection, schedule: Q01DX009 (ip), vehicle: saline",6 of 6
same,T/C,"dose: 4.0 mg/kg/injection, schedule: Q01DX001 (ip), vehicle: saline",127 % of control
same,survivor count,"dose: 4.0 mg/kg/injection, schedule: Q01DX006 (iv), vehicle: saline",6 of 6
same,survivor count,"dose: 4.0 mg/kg/injection, schedule: Q01DX009 (ip), vehicle: saline",8 of 10 and 10 of 10
same,survivor count,"dose: 4.0 mg/kg/injection, schedule: Q01DX009 (ip), vehicle: water",1 of 6 and 2 of 6
same,T/C,"dose: 4.0 mg/kg/injection, schedule: Q01DX009 (oral), vehicle: saline",135 % of control [8 of 10 alive]
same,survivor count,"dose: 4.0 mg/kg/injection, schedule: Q01DX009 (sc), vehicle: saline",9 of 10
same,survivor count,"dose: 4.0 mg/kg/injection, schedule: Q01DX010 (ip), vehicle: saline",2 of 6
same,survivor count,"dose: 4.0 mg/kg/injection, schedule: Q01DX010 (oral), vehicle: saline",6 of 6
same,T/C,"dose: 4.0 mg/kg/injection, schedule: Q04DX003 (ip), vehicle: saline",145 % of control
same,T/C,"dose: 4.0 mg/kg/injection, schedule: Q08DX002 (ip), vehicle: saline",131 % of control
same,survivor count,"dose: 4.5 mg/kg/injection, schedule: Q01DX009 (ip), vehicle: saline",0 of 6
same,survivor count,"dose: 6.7 mg/kg/injection, schedule: Q01DX009 (ip), vehicle: saline",0 of 6
same,survivor count,"dose: 8.0 mg/kg/injection, schedule: Q01DX006 (iv), vehicle: saline",4 of 6
same,survivor count,"dose: 8.0 mg/kg/injection, schedule: Q01DX009 (oral), vehicle: saline",0 of 10
same,survivor count,"dose: 8.0 mg/kg/injection, schedule: Q01DX009 (sc), vehicle: saline",1 of 10
same,survivor count,"dose: 8.0 mg/kg/injection, schedule: Q01DX010 (ip), vehicle: saline",2 of 6
same,survivor count,"dose: 8.0 mg/kg/injection, schedule: Q01DX010 (sc), vehicle: saline",6 of 6
same,survivor count,"dose: 16.0 mg/kg/injection, schedule: Q01DX001 (ip), vehicle: saline",6 of 10
same,survivor count,"dose: 16.0 mg/kg/injection, schedule: Q01DX010 (oral), vehicle: saline",1 of 6
same,survivor count,"dose: 16.0 mg/kg/injection, schedule: Q04DX003 (ip), vehicle: saline",6 of 10
same,survivor count,"dose: 16.0 mg/kg/injection, schedule: Q08DX002 (ip), vehicle: saline",4 of 10
Cc1cccn2c(C)nnc12,survivor count,"dose: 200.0 mg/kg/injection, schedule: Q01DX009 (ip), vehicle: saline with Tween-80",0 of 6
CC(=O)N1C(=O)N(Cl)C(=O)C1(C)c1cccs1 (centres undefined),T/C,"dose: 100.0 mg/kg/injection, schedule: Q01DX009 (ip), vehicle: saline with Tween-80",125 % of control
same,survivor count,"dose: 166.0 mg/kg/injection, schedule: Q01DX009 (ip), vehicle: saline with Tween-80",3 of 6
same,survivor count,"dose: 400.0 mg/kg/injection, schedule: Q01DX009 (ip), vehicle: saline with Tween-80",3 of 6
CN(C)[C@@H]1C(=O)C(C(N)=O)=C(O)[C@]2(O)C(=O)C3C(=O)c4c(O)ccc(Cl)c4[C@](C)(O)[C@H]3C[C@@H]12 (some centres undefined),T/C,"dose: 18.75 mg/kg/injection, schedule: Q01DX009 (ip), vehicle: saline with Tween-80",136 % of control
same,T/C,"dose: 37.5 mg/kg/injection, schedule: Q01DX009 (ip), vehicle: saline with Tween-80",136 % of control
same,T/C,"dose: 49.5 mg/kg/injection, schedule: Q04DX003 (ip), vehicle: saline sonified",130 % of control
same,T/C,"dose: 75.0 mg/kg/injection, schedule: Q01DX009 (ip), vehicle: saline sonified",131 % of control
same,T/C,"dose: 75.0 mg/kg/injection, schedule: Q01DX009 (ip), vehicle: saline with Tween-80",136 % of control
same,T/C,"dose: 75.0 mg/kg/injection, schedule: Q04DX003 (ip), vehicle: saline sonified",130 and 140 % of control
same,T/C,"dose: 112.5 mg/kg/injection, schedule: Q04DX003 (ip), vehicle: saline sonified",140 % of control
same,T/C,"dose: 150.0 mg/kg/injection, schedule: Q01DX009 (ip), vehicle: saline sonified",140 % of control
same,survivor count,"dose: 150.0 mg/kg/injection, schedule: Q04DX003 (ip), vehicle: saline sonified",3 of 6
same,survivor count,"dose: 300.0 mg/kg/injection, schedule: Q01DX009 (ip), vehicle: saline sonified",3 of 6
same,T/C,"dose: 300.0 mg/kg/injection, schedule: Q04DX003 (ip), vehicle: saline sonified",145 % of control
O=C(O)CCC(=O)O,T/C,"dose: 40.0 mg/kg/injection, schedule: Q01DX009 (ip), vehicle: saline",144 % of control
same,T/C,"dose: 100.0 mg/kg/injection, schedule: Q01DX009 (ip), vehicle: saline",128 % of control
same,survivor count,"dose: 200.0 mg/kg/injection, schedule: Q01DX009 (ip), vehicle: other",4 of 6
same,survivor count,"dose: 400.0 mg/kg/injection, schedule: Q01DX009 (ip), vehicle: other",0 of 6 and 3 of 6
same,survivor count,"dose: 400.0 mg/kg/injection, schedule: Q01DX009 (ip), vehicle: saline",0 of 6 and 4 of 6
CCCC1CCC(=C2C(=O)CCC2=O)O1 (centres undefined),T/C,"dose: 100.0 mg/kg/injection, schedule: Q04DX002 (ip), vehicle: saline",137 % of control
O=[N+]([O-])c1ccc(/C=C/c2nccs2)o1,survivor count,"dose: 400.0 mg/kg/injection, schedule: Q04DX003 (ip), vehicle: Klucel (hydroxypropylcellulose) (HPC)",0 of 6
O=C(O)c1occ(Cl)c1Cl,survivor count,"dose: 400.0 mg/kg/injection, schedule: Q04DX003 (ip), vehicle: water",3 of 6
